According to PMC5187391, “Structural mechanism for the arginine sensing and regulation of CASTOR1 in the mTORC1 signaling pathway” (Cell Discovery, 2016):
No constants are given. Whether binding was seen depends on the method and setting.

Tests used:
[1] = molecular target: Human CASTOR1 L22R mutant (human) (UniProt Q8WTX7); assay: SEC-MALS; 25 °C; about 400 μg protein injected per run; 15 mM Tris-HCl, pH 8.0, 150 mM NaCl, 2 mM DTT; WTC-015S5 column; both purified
[2] = molecular target: Human CASTOR1 I202D mutant (human) (UniProt Q8WTX7); assay: as above

Row | binding [1] | binding [2] | Binder
1 | no binding |  | Human CASTOR1 L22R mutant (protein, UniProt Q8WTX7 1-329) MELHILEHRVRVLSVARPGLWRYTHPLIKLLFLPRRSRCKFFSLTETPEDYTLMVDEEGFKELPPSEFLQVAEATWLVLNVSSHSGAAVQAAGVTKIARSVIAPLAEHHVSVLMLSTYQTDFILVREQDLSVVIHTLAQEFDIYREVGGEPVPVTRDDSSNGFPRTQHGPSPTVHPIQSPQNRFCVLTLDPETLPAIATTLIDVLFYSHSTPKEAASSSPEPSSITFFAFSLIEGYISIVMDAETQKKFPSDLLLTSSSGELWRMVRIGGQPLGFDECGIVAQIAGPLAAADISAYYISTFNFDHALVPEDGIGSVIEVLQRRQEGLAS
2 |  | no binding | Human CASTOR1 I202D mutant (protein, UniProt Q8WTX7 1-329) MELHILEHRVRVLSVARPGLWLYTHPLIKLLFLPRRSRCKFFSLTETPEDYTLMVDEEGFKELPPSEFLQVAEATWLVLNVSSHSGAAVQAAGVTKIARSVIAPLAEHHVSVLMLSTYQTDFILVREQDLSVVIHTLAQEFDIYREVGGEPVPVTRDDSSNGFPRTQHGPSPTVHPIQSPQNRFCVLTLDPETLPAIATTLDDVLFYSHSTPKEAASSSPEPSSITFFAFSLIEGYISIVMDAETQKKFPSDLLLTSSSGELWRMVRIGGQPLGFDECGIVAQIAGPLAAADISAYYISTFNFDHALVPEDGIGSVIEVLQRRQEGLAS
